# Source: PubChem BioAssay AID652243 (Drosophila RNAi Screening Center, 2013)
# Assay: 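Knock-downs that decrease or increase androgen receptor reporter signal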 (primary screen)
# Cell system: Drosophila S2R+ cells
# Reagents: long dsRNA against Drosophila genes
# Timing: 72 h (48 h, then 24 h hormone)
# Challenge: synthetic androgen R1881 at 10 nM for 24 h
# Measured: 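Firefly light from an androgen-responsive reporter and Renilla control light per well, raw and unnormalised, for each of two replicates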
# Direction: firefly reporter light: higher = more light from androgen-responsive reporter; Renilla control light: higher = more constitutive control signal (cell number, transfection)
# Call rule: 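Hit when the log firefly-to-Renilla ratio dropped or increased by a fixed fold versus the mean of GFP or LacZ controls across duplicate plates; lowering cut given as 1.5 and as 3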
# Meaning of the calls: active = hit: reporter lowered or raised; inactive = no hit
# In all, the deposit lists about 24,000 reagents; below is a random part of those with a known target gene and a result. Of all reagents, 246 (1%) are marked active. 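Plates not normalised; calls are printed but the firefly/Renilla ratio behind them is not deposited; fold cut for lowering reported inconsistently.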 The raw values are shown without normalisation. Names joined by + are all predicted targets of the reagent. Not stated in the record: the amount of reagent.
predicted target,DRSC id,"firefly reporter light, replicate 1","firefly reporter light, replicate 2","Renilla control light, replicate 1","Renilla control light, replicate 2",outcome
Dh44-R2 (GeneID 36368),DRSC06141,4.66e5,2.86e5,2.55e6,1.97e6,inactive
Dh44-R2 (GeneID 36368),DRSC06281,3.47e5,2.37e5,1.41e6,1.67e6,inactive
scf (GeneID 38145),DRSC08735,71100,89712,1.16e6,9.91e5,inactive
Rdh (GeneID 2769007),DRSC08063,7919,12750,55879,79059,inactive
PGRP-SC1a + PGRP-SC1b,DRSC25294,4.87e5,2.97e5,3.33e5,4.78e5,inactive
Sodq (GeneID 43133),DRSC15924,1.91e5,2.35e5,2.67e6,2.42e6,inactive
Sodq (GeneID 43133),DRSC27755,3.18e5,2.00e5,3.91e5,4.18e5,inactive
Pvf2 (GeneID 33994),DRSC00968,5.59e5,5.47e5,3.56e6,2.97e6,inactive
Pvf2 (GeneID 33994),DRSC02283,2.32e5,2.10e5,1.93e6,1.71e6,inactive
ninaD (GeneID 326160),DRSC02886,1.76e5,1.81e5,1.42e6,1.92e6,inactive
ninaD (GeneID 326160),DRSC24484,5.53e5,3.77e5,4.19e5,4.23e5,inactive
Arp6 (GeneID 32514),DRSC19326,1.16e5,1.45e5,1.06e6,1.01e6,inactive

2 entries already listed, sorted by “firefly reporter light, replicate 1”, lowest first:
predicted target,DRSC id,"firefly reporter light, replicate 1","firefly reporter light, replicate 2","Renilla control light, replicate 1","Renilla control light, replicate 2",outcome
Dh44-R2 (GeneID 36368),DRSC06281,3.47e5,2.37e5,1.41e6,1.67e6,inactive
Dh44-R2 (GeneID 36368),DRSC06141,4.66e5,2.86e5,2.55e6,1.97e6,inactive

Next records follow:
predicted target,DRSC id,"firefly reporter light, replicate 1","firefly reporter light, replicate 2","Renilla control light, replicate 1","Renilla control light, replicate 2",outcome
SLC22A (GeneID 40437),DRSC11826,2.55e5,3.09e5,2.68e6,3.37e6,inactive
SLC22A (GeneID 40437),DRSC11827,3.20e5,2.15e5,2.94e6,2.76e6,inactive
CG12817 + CG12420,DRSC22814,3.28e5,7.84e5,1.00e6,1.90e6,inactive
l(2)37Cb (GeneID 35192),DRSC02095,1.09e6,7.20e5,2.07e6,1.96e6,inactive
l(2)37Cb (GeneID 35192),DRSC24383,7.89e5,1.34e6,8.75e5,9.94e5,inactive
CG5390 (GeneID 34383),DRSC02855,1.30e5,1.92e5,7.25e5,8.67e5,inactive
CG5390 (GeneID 34383),DRSC27775,3.77e5,2.71e5,3.90e5,5.66e5,inactive
CG13051 (GeneID 5740583),DRSC09932,3.28e5,2.89e5,2.87e6,2.41e6,inactive
Lamtor4 (GeneID 38454),DRSC08436,1.55e5,1.34e5,1.77e6,2.24e6,inactive
CG9961 (GeneID 33459),DRSC00738,,,,,inactive
CG9961 (GeneID 33459),DRSC23343,7.14e5,9.01e5,1.85e6,2.19e6,inactive
CG9961 (GeneID 33459),DRSC25842,5.02e5,4.56e5,7.92e5,8.60e5,inactive
